Data reported in patent US7026330B2, “Methods for treatment of acute lymphocytic leukemia” (The Children's Hospital of Philadelphia, priority 2002, dated 2006).
“Also recorded” adds a separate entry of the source. For at least one compound, name, drawing or mass did not settle the structure.

How the values were obtained:
[1] = system: ALL cell line #289; assay: MTT proliferation assay, cell line #289; type: cell-based, mouse; conditions: 0, 1 or 100 ng/ml rapamycin, 3 days, FIG. 4
Procedure: (§1) Cell Preparation and Cell Culture Conditions. A single cell suspension of bone marrow or lymph nodes from leukemic Eμ-RET+ transgenic mice was prepared [Wasserman, 1998]. These ALL cells were maintained at 37° C. with 5% CO2 in RPMI-1640, L-Glutamine, 10 mM HEPES, 1 mM Sodium Pyruvate, 100 μM non-essential amino acids, 100 U/ml penicillin, 100 μg/ml streptomycin (GibCo-BRL, Rocksville, Md.), 50 μM 2-mercaptoethanol (FisherScientific, Fair Lawn, N.J.)+10% Fetal Calf Serum (HyClone, Logan, Utah)+10% Calf Serum (HyClone, Logan Utah) (C20 media) with 10 U/ml IL-7. Cell surface markers on these cells were determined by flow cytometry as described previously [Wasserman, 1998], and the phenotype was stable in culture over time.
(§2) Proliferation Assays. Cells were cultured in IL-7-free C20 media for 24 hours. […] Cell growth was assayed using methyl-thiazole-tetrazolin (MTT) [Mosmann, 1983]. After removing 50 μl media from each well, 10 μl MTT, 5 mg/ml, (Sigma, St. Louis, Mo.) was added to each sample and incubated for 4 hours. […] Absorbance was measured at OD595 using microplate spectrophotometer (Benchmark Microplate Reader, Bio-Rad Laboratories, Hercules, Calif.). Results are expressed as mean of absolute absorbance numbertreated sample divided by the mean of absolute absorbance numbercontrol sample. […]

[2] = system: neuroblastoma cell line SK-NA-S; assay: MTT proliferation assay, neuroblastoma cell line; type: cell-based; conditions: doses up to 100 ng/ml; data not shown
[3] = system: Eμ-RET+ transgenic mouse derived cell lines, #83, T309, #289, #420.2; assay: MTT proliferation assay, ALL cell lines; type: cell-based; conditions: even the lower concentration (1 ng/ml); data not shown
Procedure: as §1, §2

[4] = system: YES proto-oncogene; assay: mRNA expression in ALL cells (Affymetrix MG-U74Av4 Genechips); type: cell-based; conditions: ALL cells treated with rapamycin
Text: We found the most profound change in expression in the YES proto-oncogene, a member of the src family of kinases. […] However, the ability of IL-7 to reverse rapamycin-induced growth inhibition may involve other target proteins downstream of p70S6 kinase, such as p27kip1 or cdk2.

[5] = system: phosphor-p70S6 kinase (Thr389); assay: Immunoblotting of p70S6 kinase in ALL cell line #289; type: cell-based, mouse; conditions: 4 hours
Procedure: Crude Lysate Preparation and Immunoblotting. […] After harvesting, cells were washed with ice cold PBS and then lysed in 100 μl of 1% Triton-X containing protease and phosphatase inhibitors (1 μg/ml apoprotinin, 1 μg/ml leupeptin, 1 mM […], 1 mM NaF, 0.1 mM AEBSF) at 4° C. for 5 minutes. Crude lysates were obtained by centrifugation (12,000 rpm at 4° C. for 20 minutes). Protein concentrations were determined using Bio-Rad Protein assay kit (Bio-Rad Laboratories, Hercules, Calif.). Equal amounts of protein were analyzed by 4–12% Tris-Bis gel electrophoresis and transferred to PVDF membranes (NuPage Invitrogen, Carlsbad, Calif.). Specific proteins were detected with anti-Phosphor-p70S6 kinase (Thr389) and anti-total p70S6 kinase antibodies (Cell Signaling Technologies, Beverly, Mass.) diluted in TTBS (1:500). Immunodetection was performed with horseradish peroxidase-conjugated anti-rabbit IgG and then developed by chemoluminescence (Amersham Pharmacia Biotech, Piscataway, N.J.). Immunoblots were stripped for reprobing by incubating immunoblots in stripping buffer (100 mM 2-mercaptoethanol, 2% sodium dodecyl sulphate, 62.5 mM Tris-HCl pH 6.7) for 30 minutes in 37° C. water bath with occasional agitation. […] Specific proteins were immunoblotted and detected as above.

In the case of CO[C@H]1C[C@@H]2CC[C@@H](C)[C@@](O)(O2)C(=O)C(=O)N2CCCC[C@H]2C(=O)O[C@H]([C@H](C)C[C@@H]2CC[C@@H](O)[C@H](OC)C2)CC(=O)[C@H](C)/C=C(\C)[C@@H](O)[C@@H](OC)C(=O)[C@H](C)C[C@H](C)/C=C/C=C/C=C/1C [rapamycin], the “growth inhibition by rapamycin” value [1] is reported as “almost completely inhibited”, the proliferation [2] is reported as “unaffected” and the “state of treated cells by 4–5 days of culture” value [3] is reported as “dead”. For the same compound, the “YES proto-oncogene mRNA expression” value [4] was “virtually undetectable”, the “phosphor-p70S6 kinase (Thr389) level” value ([5]; 100 ng/ml rapamycin) was “profound decrease; also recorded: profoundly decreased” and the “p70S6 kinase total protein levels” value ([5]; 100 ng/ml rapamycin or 10 U/ml IL-7) was “unchanged”.
